Data on 1 compound can be found in patent publication US20140127157A1, “ANTIVIRAL ACTIVITY OF TYROSINE KINASE INHIBITORS AGAINST HEPATITUS C VIRUS” (priority 2012, published 2014).

pEC50: −log10 of the molar value. Read-outs that look alike come from different tables or passages of the source.

For one test, the system named is HCVcc. The experiment in a line: microbe, parasite or virus in culture. The following applies: Hepatitis C virus. From the text: The infectious cell culture system for HCV (HCVcc) is based on a unique full length strain of genotype 2a derived from a patient with fulminant hepatitis (JFH-1). HCVcc allows the complete virus life cycle to be studied in cell culture. A chimeric strain of JFH-1, termed Jc1JFH, is capable of more robust growth in tissue culture and can be engineered to encode a reporter gene. The activity of compounds such as nilotinib against HCVcc can be investigated using a Jc1JFH reporter virus encoding luciferase (Table 1). Naïve Huh-7.5 cells are treated with serially diluted compounds in DMSO for 2 h prior to infection with HCVcc. […] Both EC50 and CC50 values are normalized to cells treated with DMSO alone.

The next test relates to HCVrep. The experiment in a line: HCV replicon (HCVrep) luciferase assay, JFH-1-based replicon cell line. Particulars: Hepatitis C virus, 72 h, read-out: HCVrep (EC50, μM). From the text:
HCVrep comprises a stable cell line harboring a sub-genomic replicon encoding a selectable marker (e.g., neomycin phosphotransferase), a reporter gene (e.g., luciferase) and the minimal HCV replicase proteins, NS3 to NS5B. Since the subgenomic replicon is non-infectious, the HCVrep system is used to study viral RNA replication independently of other stages of the life cycle, including virus entry/assembly/release. […] To determine the effects of compounds such as nilotinib on HCV RNA replication, a stable JFH-1-based replicon cell line encoding luciferase was established.

With `Cc1ccc(NC(=O)c2ccc(CN3CCN(C)CC3)cc2)cc1Nc1nccc(-c2cccnc2)n1` [Imatinib, imatinib], the pEC50 (as a rule, −log10 of the EC50, conventionally taken in molar units) in the test on HCVcc (Huh7.5) was 5.33. Also, the EC50 (usually the midpoint of the concentration-response curve) was 4.6 µM with HCVcc (Huh7.5, read-out: HCVcc (EC50, μM)) and no less than 20 µM in the test on HCVrep.
